Library screening results

Mtb growth Cornell: 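Whole-cell assay for inhibitors of Mycobacterium tuberculosis growth, labelled Cornell in the record; the read-out is not stated. The concentration is filed as 10 mM, unlikely as a test dose, so the dose is not known. Higher means stronger inhibition (inferred from two other growth screens of the library). Size under these conditions: about 53,000 compounds, about 900 of them at 50% or above in at least one test.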
Mtb heat-shock: 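Assay on Mycobacterium tuberculosis, filed only as a heat shock assay from Cornell; the read-out is not stated. The concentration is filed as 10 mM, unlikely as a test dose, so the dose is not known. Higher reads as stronger inhibition (inferred: compounds with an IC50 in retests scored well above the rest). Of about 69,000 compounds tested this way, about 930 (1.4%) reached 50% or more in at least one test.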

The filed quantity is “Percent Effect” (%).
The record does not define 0% and 100%; most values in the screen are far below 50% and negative numbers occur (in some assays of this library far below -100).
This is an unselected part of the compounds tested.

{"structure": "Cc1ccc(C(=O)NC2CCN(Cc3noc(C(C)C)n3)CC2)s1", "Mtb growth Cornell": 18.21, "Mtb heat-shock": -0.6062}
{"structure": "[H][C@@]12COC[C@]1(COCC1CCOCC1)CN(C(=O)Cc1ccco1)C2", "Mtb growth Cornell": 1.708, "Mtb heat-shock": 0.747}
{"structure": "Cc1ccc(-c2cc(N)c(=O)n(CC(=O)NCC3CCCCC3)n2)s1", "Mtb growth Cornell": 31.53, "Mtb heat-shock": 2.126}
{"structure": "CN1CCCC(CCC(=O)N2CCc3[nH]c(-c4ccccc4)nc3C2)C1", "stereo": "stereo not given", "Mtb growth Cornell": -26.59, "Mtb heat-shock": -41.44}
{"structure": "Cc1cnn(CC2CN(CC(=O)Nc3c(C)nn(C)c3C)CCO2)c1", "stereo": "stereo not given", "Mtb growth Cornell": 34.63, "Mtb heat-shock": 16.97}
{"structure": "COCc1noc(C2(c3ccc(Br)cc3)CCOCC2)n1", "Mtb heat-shock": 0.5822}
{"structure": "COc1ccccc1CC1CCCN(CCC(N)=O)C1", "stereo": "stereo not given", "Mtb growth Cornell": -51.73, "Mtb heat-shock": 4.94}
{"structure": "CCCNC1(c2ccc(Cl)cc2)CCOCC1", "Mtb growth Cornell": 2.148, "Mtb heat-shock": 18.42}
{"structure": "CCc1cccc(N2CCC(NC(=O)c3ccncc3)CC2)c1", "Mtb growth Cornell": 17.11, "Mtb heat-shock": -6.23}
{"structure": "CN(Cc1cnn(C)c1)C(=O)NCc1csc(Br)c1", "Mtb growth Cornell": 1.878, "Mtb heat-shock": 7.533}
{"structure": "[H][C@@]12CCN(Cc3ccc4c(c3)OCO4)C[C@]1(c1nnc(C)o1)CCO2", "Mtb growth Cornell": -5.266, "Mtb heat-shock": 6.246}
{"structure": "COCC(=O)Nc1nn(Cc2ccc(F)cc2)cc1Cl", "Mtb growth Cornell": 48.94, "Mtb heat-shock": -26.17}
{"structure": "O=C(NCCCN1CCCCC1)c1n[nH]c(=O)c2ccccc12", "Mtb heat-shock": -23.74}
{"structure": "COc1ccccc1C(=O)Nc1c(C)cnn1CC1CC1", "Mtb growth Cornell": -4.084, "Mtb heat-shock": -5.24}
{"structure": "Clc1ccc(COCC2CCN(Cc3ccccn3)CC2)cc1.O=C(O)C(=O)O", "Mtb growth Cornell": 33.78, "Mtb heat-shock": 53.14}
{"structure": "COc1ccc(S(=O)(=O)NCc2cccnc2N(C)C)cc1", "Mtb heat-shock": -13.28}
{"structure": "Cc1ccc(NC2CCN(C(=O)c3cc(C)no3)CC2)nn1", "Mtb heat-shock": -6.463}
{"structure": "CN1CC(=O)N(c2ccsc2)CC12CCN(Cc1cnn(C)c1)C2.O=C(O)C(F)(F)F.O=C(O)C(F)(F)F", "stereo": "stereo not given", "Mtb growth Cornell": 1.106, "Mtb heat-shock": -44.55}
{"structure": "O=C(O)C(F)(F)F.O=C(O)C(F)(F)F.[H][C@]12CCC[C@@]1(COCC1CC1)CN(Cc1ccccn1)C2", "Mtb growth Cornell": 16.83, "Mtb heat-shock": 0.2997}
{"structure": "[H][C@@]12CCN(CC3CCOCC3)C[C@@]1([H])[C@H](C(=O)N1CCCC1)CCO2", "Mtb growth Cornell": -4.462, "Mtb heat-shock": -13.38}
{"structure": "CN(CCOc1ccccc1F)C1CCOC1=O", "stereo": "stereo not given", "Mtb growth Cornell": -18.35, "Mtb heat-shock": -5.614}
{"structure": "N#CCCn1nc(C(F)(F)F)c2c1CCC2", "Mtb growth Cornell": -48.43, "Mtb heat-shock": 2.185}
{"structure": "Cc1occc1C(=O)N1CCOCC2(CCN(C3CCOCC3)C2)C1.O=C(O)C(F)(F)F", "stereo": "stereo not given", "Mtb growth Cornell": 20.51, "Mtb heat-shock": -36.08}
{"structure": "CC(C)(C)c1n[nH]c(C2CN(Cc3nnc(C4CC4)o3)CCO2)n1", "stereo": "stereo not given", "Mtb heat-shock": 0.5388}
{"structure": "FC(F)Oc1ccccc1CN1CCCC(c2nccn2CC2CC2)C1", "stereo": "stereo not given", "Mtb growth Cornell": 4.856, "Mtb heat-shock": 23.85}
{"structure": "COCCN1CCCC12CCN(Cc1cncn1C)CC2.O=C(O)C(F)(F)F.O=C(O)C(F)(F)F", "Mtb growth Cornell": 22.11, "Mtb heat-shock": -14.22}
{"structure": "CS(=O)(=O)NCc1ccc(C(=O)NCc2ccc3c(c2)CCC3)o1", "Mtb heat-shock": -0.1559}
{"structure": "COCc1cccc(CNc2cnn(C(C)(C)C)c(=O)c2Cl)c1", "Mtb growth Cornell": 17.4, "Mtb heat-shock": 7.758}
{"structure": "COC(=O)NCC(=O)NCC(C)(C)c1cccc(Br)c1", "Mtb heat-shock": 0.7342}
{"structure": "COCCN1CCC(CNC(=O)C2(C#N)CCCC2)CC1", "Mtb heat-shock": -10.24}
{"structure": "Cc1c(CN2Cc3nccn3CC2c2ccccc2)cnn1C", "stereo": "stereo not given", "Mtb growth Cornell": 22.48, "Mtb heat-shock": -3.241}
{"structure": "O=S(=O)(Cc1cccc2cccnc12)NC(CO)c1ccco1", "stereo": "stereo not given", "Mtb growth Cornell": -5.516, "Mtb heat-shock": -9.962}
{"structure": "OC(CNc1nc(C2CCCC2)nc2c1CCNCC2)C(F)(F)F", "stereo": "stereo not given", "Mtb growth Cornell": 24.62, "Mtb heat-shock": -20.81}
{"structure": "CC(=O)Nc1ncc(S(=O)(=O)N2CCC(C)CC2)s1", "Mtb growth Cornell": 15.71, "Mtb heat-shock": 10.95}
{"structure": "O=C(C1SCCc2sccc21)N1CCN(C2CC2)C(=O)C1", "stereo": "stereo not given", "Mtb growth Cornell": -2.314, "Mtb heat-shock": -0.3065}

2 of the entries, repeated:

structure,Mtb growth Cornell,Mtb heat-shock
OC(CNc1nc(C2CCCC2)nc2c1CCNCC2)C(F)(F)F (stereo not given),24.62%,-20.81%
COCc1cccc(CNc2cnn(C(C)(C)C)c(=O)c2Cl)c1,17.4%,7.758%

Source: ChEMBL document CHEMBL3988442, “University of Dundee, Small-Polar-MMV Screening Library” (2021).